US5883287A, “Vinyl sulfide compounds and a process for their preparation” (Lumigen, Inc., priority 1997, dated 1999)

Assays:
[1] = Light emission on heating; assay type: physicochemical; settings: heated, TLC plate or sample
[2] = Fluoride induced chemiluminescence (TBAF in DMSO); assay type: physicochemical; settings: for chemiluminescence on addition to TBAF: addition of isolated dioxetane to 0.1M TBAF in DMSO; for chemiluminescence produced by fluoride triggering: sample of dioxetane, excess TBAF in DMSO (or DMSO/TBAF); for color of chemiluminescence emission: aliquot of reaction solution reacted with 0.1M TBAF in DMSO

Row | Structure (SMILES) | light emission on heating [1] | chemiluminescence on addition to TBAF [2] | chemiluminescence produced by fluoride triggering [2] | color of chemiluminescence emission [2]
1 | COC1(c2cccc(O[Si](c3ccccc3)(c3ccccc3)C(C)(C)C)c2)OOC12C1CC3CC(C1)CC2C3 (stereo not shown) [Dioxetane 22, 4-(3-t-Butyldiphenylsilyloxyphenyl)-4-methoxyspiro[1,2-dioxetane-3,2'-tricyclo-[3.3.1.1^3,7]decane]] | blue chemiluminescence | blue chemiluminescence |  | 
2 | Oc1cccc(C2(SCC(F)(F)F)OOC23C2CC4CC(C2)CC3C4)c1 (stereo not shown) [Dioxetane 5, 4-(2,2,2-trifluoroethylthio)-4-(3-hydroxyphenyl)spiro[1,2-dioxetane-3,2'-tricyclo[3.3.1.1^3,7]decane]] | light emitted on heating |  | orange-yellow light | 
3 | Oc1cccc(C2(OCC(Cl)(Cl)Cl)OOC23C2CC4CC(C2)CC3C4)c1 (stereo not shown) [Dioxetane 15, 4-(3-Hydroxyphenyl)-4-(2,2,2-trichloroethoxy)spiro[1,2-dibxetane-3,2'-tricyclo[3.3.1.1^3,7]decane]] | emitted blue-green light |  |  | 
4 | CC(C)(C)C(=O)Oc1cccc(C2(Sc3ccc(F)cc3)OOC23C2CC4CC(C2)CC3C4)c1 (stereo not shown) [Dioxetane 4, 4-(p-Fluorophenylthio)-4-(3-pivaloyloxyphenyl)spiro[1,2-dioxetane-3,2'tricyclo[3.3.1.1^3,7]decane]] | emitted light when a sample was heated |  | red chemiluminescence | yellow emission
5 | OCCOC1(c2cccc(O)c2)OOC12C1CC3CC(C1)CC2C3 (stereo not shown) [Dioxetane 10, 4-(2-Hydroxyethoxy)-4-(3-hydroxyphenyl)spiro[1,2-dioxetane-3,2'-tricyclo[3.3.1.1^3,7]decane]] | emitted blue light |  |  | blue emission
6 | Oc1cccc(C2(OCC(Cl)Cl)OOC23C2CC4CC(C2)CC3C4)c1 (stereo not shown) [Dioxetane 16, 4-(2,2-Dichloroethoxy)-4-(3-hydroxyphenyl)spiro[1,2-dioxetane-3,2'-tricyclo-[3.3.1.1^3,7]decane]] | emitted blue-green light |  |  | 
7 | Oc1cccc(C2(Oc3c(F)cccc3F)OOC23C2CC4CC(C2)CC3C4)c1 (stereo not shown) [Dioxetane 19, 4-(2',6'-Difluorophenoxy)-4-(3-hydroxyphenyl)spiro[1,2-dioxetane-3,2'-tricyclo[3.3.1.1^3,7]decane]] | emitted blue-green light |  |  | 
8 | C=CCOC1(c2cccc(O)c2)OOC12C1CC3CC(C1)CC2C3 (stereo not shown) [Dioxetane 8, 4-(3-Hydroxyphenyl)-4-(2-propenyloxy)spiro[1,2-dioxetane-3,2'-tricyclo[3.3.1.1^3,7]decane]] | emitted blue light |  |  | blue emission
9 | COC1(c2cccc(O[Si](C)(C)C(C)(C)C)c2)OOC12C1CC3CC(C1)CC2C3 (stereo not shown) [Dioxetane 21, 4-(3-t-Butyldimethylsilyloxyphenyl)-4-methoxyspiro[1,2-dioxetane-3,2'-tricyclo-[3.3.1.1^3,7]decane]] | blue chemiluminescence | blue chemiluminescence |  | 
10 | N#CCCOC1(c2cccc(O)c2)OOC12C1CC3CC(C1)CC2C3 (stereo not shown) [Dioxetane 9, 4-(2-Cyanoethoxy)-4-(3-hydroxyphenyl)spiro[1,2-dioxetane-3,2'-tricyclo[3.3.1.1^3,7]decane]] | emitted blue light |  |  | blue emission
11 | Oc1cccc(C2(Oc3ccccc3)OOC23C2CC4CC(C2)CC3C4)c1 (stereo not shown) [Dioxetane 11, 4-(3-Hydroxyphenyl)-4-phenoxyspiro[1,2-dioxetane-3,2'-tricyclo[3.3.1.1^3,7]decane]] | emitted blue light |  |  | blue emission
12 | CCSC1(c2cccc(O)c2)OOC12C1CC3CC(C1)CC2C3 (stereo not shown) [Dioxetane 1, 4-Ethylthio-4-(3-hydroxyphenyl)spiro[1,2-dioxetane-3,2'-tricyclo[3.3.1.1^3,7]decane]] |  |  | yellow chemiluminescence | yellow emission
13 | COC1(c2cccc(OC(=O)C(C)(C)C)c2)OOC12C1CC3CC(C1)CC2C3 (stereo not shown) [Dioxetane 20, 4-Methoxy-4-(3-pivaloyloxyphenyl)spiro[1,2-dioxetane-3,2'-tricyclo[3.3.1.1^3,7]decane]] | emitted blue light |  |  | blue emission
14 | COC1(c2cccc(O)c2)OOC12C1CC3CC(C1)CC2C3 (stereo not shown) [Dioxetane 6, 4-(3-Hydroxyphenyl)-4-methoxyspiro[1,2-dioxetane-3,2'-tricyclo[3.3.1.1^3,7]decane]] | emitted blue light |  |  | blue emission
15 | Oc1cccc(C2(Sc3ccc(F)cc3)OOC23C2CC4CC(C2)CC3C4)c1 (stereo not shown) [Dioxetane 3, 4-(p-Fluorophenylthio)-4-(3-hydroxyphenyl)spiro[1,2-dioxetane-3,2'-tricyclo[3.3.1.1^3,7]decane]] | emitted light when heated |  |  | 
16 | CCSC1(c2cccc(OC(=O)C(C)(C)C)c2)OOC12C1CC3CC(C1)CC2C3 (stereo not shown) [Dioxetane 2, 4-Ethylthio-4-(3-pivaloyloxyphenyl)spiro[1,2-dioxetane-3,2'-tricyclo-[3.3.1.1^3,7]decane]] | emitted light when heated |  | yellow chemiluminescence | 
17 | CC(C)OC1(c2cccc(O)c2)OOC12C1CC3CC(C1)CC2C3 (stereo not shown) [Dioxetane 7, 4-Isopropoxy-4-(3-hydroxyphenyl)spiro[1,2-dioxetane-3,2'-tricyclo[3.3.1.1^3,7]decane]] | emitted blue light |  |  | blue emission
